Data as given in patent US20110263827A1.
These are yes or no findings as the source states them, for the method shown. Some binding calls cover weakened binding; strength is not graded here. Values belong to the binder of their own block, whether it stands above or below them.

The chains behind the UniProt entries cited, without tags or fusion partners. Where a name states a change or a piece, a line headed by the entry shows the natural chain unless it says otherwise. A line that says so, or that is headed by a name, gives the form on record, which may keep a tag or linker. Residues count along the entry.
PLGF (P49763, form named): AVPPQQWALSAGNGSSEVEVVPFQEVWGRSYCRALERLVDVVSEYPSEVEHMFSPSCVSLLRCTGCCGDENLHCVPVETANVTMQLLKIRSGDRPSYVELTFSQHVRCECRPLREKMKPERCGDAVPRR
UniProt P14210, residues 32-728: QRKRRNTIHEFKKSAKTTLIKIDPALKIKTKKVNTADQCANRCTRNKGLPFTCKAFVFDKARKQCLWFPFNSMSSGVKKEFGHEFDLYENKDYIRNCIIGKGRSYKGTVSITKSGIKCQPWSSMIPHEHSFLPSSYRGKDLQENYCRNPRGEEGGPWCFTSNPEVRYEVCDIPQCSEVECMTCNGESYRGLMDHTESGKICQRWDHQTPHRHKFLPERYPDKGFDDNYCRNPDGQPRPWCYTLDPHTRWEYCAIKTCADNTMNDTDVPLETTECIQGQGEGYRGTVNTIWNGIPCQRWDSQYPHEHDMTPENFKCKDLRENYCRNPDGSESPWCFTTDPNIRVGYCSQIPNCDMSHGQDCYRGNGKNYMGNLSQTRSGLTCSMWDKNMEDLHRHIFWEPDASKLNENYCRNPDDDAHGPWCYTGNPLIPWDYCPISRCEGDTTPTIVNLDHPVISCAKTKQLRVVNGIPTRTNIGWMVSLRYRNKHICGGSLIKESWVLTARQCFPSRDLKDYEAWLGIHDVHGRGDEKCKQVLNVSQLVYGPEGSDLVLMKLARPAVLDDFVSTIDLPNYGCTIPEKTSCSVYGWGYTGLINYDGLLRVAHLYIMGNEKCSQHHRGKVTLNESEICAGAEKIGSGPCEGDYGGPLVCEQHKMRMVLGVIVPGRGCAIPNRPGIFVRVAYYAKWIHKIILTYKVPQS

Columns and labels:
[1] = target: PLGF (UniProt P49763); test: direct bind ELISA
[2] = target: HGF (UniProt P14210); test: direct bind ELISA

- binding [1]: binds
B1: DVD783 (bispecific antibody)
VH: QVQLQESGPGLVKPSQTLSLTCTVSGYSISSDFAWNWIRQPPGKGLEWMGYISYSGNTRYQPSLKSRITISRDTSKNQFFLKLNSVTAADTATYYCVTAGRGFPYWGQGTLVTVSSASTKGPSVFPLAPQVQLQQSGAELVKPGASVKISCKASGYTFTDYYINWVKLAPGQGLEWIGWIYPGSGNTKYNEKFKGKATLTIDTSSSTAYMQLSSLTSEDTAVYFCVRDSPFFDYWGQGTLLTVSS
VL: DIQMTQSPSSMSVSVGDRVTITCHSSQDINSNIGWLQQKPGKSFKGLIYHGTNLDDGVPSRFSGSGSGTDYTLTISSLQPEDFATYYCVQYAQFPWTFGGGTKLEIKRTVAAPSVFIFPPDIVLTQSPDSLAVSLGERVTMNCKSSQSLLNSGMRKSFLAWYQQKPGQSPKLLIYWASTRESGVPDRFTGSGSGTDFTLTISSVQAEDVAVYYCKQSYHLFTFGSGTKLEIKR

- binding [2]: binds
B2: DVD777 (bispecific antibody)
VH: QVQLQESGPGLVKPSQTLSLTCTVSGYSISSDFAWNWIRQPPGKGLEWMGYISYSGNTRYQPSLKSRITISRDTSKNQFFLKLNSVTAADTATYYCVTAGRGFPYWGQGTLVTVSSASTKGPSVFPLAPQVQLVESGGGLVKPGGSLRLSCAASGFTFSDYYMSWIRQAPGKGLEWVSYISSSGSTIYYADSVKGRFTISRDNAKNSLYLQMNSLRAEDTAVYYCARDEYNSGWYVLFDYWGQGTLVTVSS
VL: DIQMTQSPSSMSVSVGDRVTITCHSSQDINSNIGWLQQKPGKSFKGLIYHGTNLDDGVPSRFSGSGSGTDYTLTISSLQPEDFATYYCVQYAQFPWTFGGGTKLEIKRTVAAPSVFIFPPDIQMTQSPSSVSASVGDRVTITCRASQGISSWLAWYQQKPGKAPNLLIYEASSLQSGVPSRFGGSGSGTDFTLTISSLQPEDFATYYCQQANGFPWTFGQGTKVEIKR

- binding [1]: binds
B3: DVD341 (bispecific antibody)
VH: QVQLQESGPGLVKPSQTLSLTCTVSGYSISSDFAWNWIRQPPGKGLEWMGYISYSGNTRYQPSLKSRITISRDTSKNQFFLKLNSVTAADTATYYCVTAGRGFPYWGQGTLVTVSSASTKGPQVQLQQSGAELVKPGASVKISCKASGYTFTDYYINWVKLAPGQGLEWIGWIYPGSGNTKYNEKFKGKATLTIDTSSSTAYMQLSSLTSEDTAVYFCVRDSPFFDYWGQGTLLTVSS
VL: DIQMTQSPSSMSVSVGDRVTITCHSSQDINSNIGWLQQKPGKSFKGLIYHGTNLDDGVPSRFSGSGSGTDYTLTISSLQPEDFATYYCVQYAQFPWTFGGGTKLEIKRTVAAPDIVLTQSPDSLAVSLGERVTMNCKSSQSLLNSGMRKSFLAWYQQKPGQSPKLLIYWASTRESGVPDRFTGSGSGTDFTLTISSVQAEDVAVYYCKQSYHLFTFGSGTKLEIKR

- binding [1]: binds
B4: DVD843 (bispecific antibody)
VH: B3 VH
VL: B1 VL

- binding [1]: binds
B5: DVD813 (bispecific antibody)
VH: B1 VH
VL: B3 VL
